Experimental data published in patent publication US20220280543A1, “DDX17 AND NLRC4 TARGETING FOR INFLAMMATORY DISEASES” (University of Virginia Patent Foundation, priority 2019, published 2022).
These are yes or no findings as the source states them, for the method shown. For some of these results: Binding seen in cells or lysates may run through a third protein. Some results given as binding are weak or reduced against the parent protein; the word gives no strength.

Chains of the proteins cited; added tags and fusions are not shown. Lines headed by an entry give the natural chain unless they say otherwise; changes in a name come on top.
UniProt Q3UP24: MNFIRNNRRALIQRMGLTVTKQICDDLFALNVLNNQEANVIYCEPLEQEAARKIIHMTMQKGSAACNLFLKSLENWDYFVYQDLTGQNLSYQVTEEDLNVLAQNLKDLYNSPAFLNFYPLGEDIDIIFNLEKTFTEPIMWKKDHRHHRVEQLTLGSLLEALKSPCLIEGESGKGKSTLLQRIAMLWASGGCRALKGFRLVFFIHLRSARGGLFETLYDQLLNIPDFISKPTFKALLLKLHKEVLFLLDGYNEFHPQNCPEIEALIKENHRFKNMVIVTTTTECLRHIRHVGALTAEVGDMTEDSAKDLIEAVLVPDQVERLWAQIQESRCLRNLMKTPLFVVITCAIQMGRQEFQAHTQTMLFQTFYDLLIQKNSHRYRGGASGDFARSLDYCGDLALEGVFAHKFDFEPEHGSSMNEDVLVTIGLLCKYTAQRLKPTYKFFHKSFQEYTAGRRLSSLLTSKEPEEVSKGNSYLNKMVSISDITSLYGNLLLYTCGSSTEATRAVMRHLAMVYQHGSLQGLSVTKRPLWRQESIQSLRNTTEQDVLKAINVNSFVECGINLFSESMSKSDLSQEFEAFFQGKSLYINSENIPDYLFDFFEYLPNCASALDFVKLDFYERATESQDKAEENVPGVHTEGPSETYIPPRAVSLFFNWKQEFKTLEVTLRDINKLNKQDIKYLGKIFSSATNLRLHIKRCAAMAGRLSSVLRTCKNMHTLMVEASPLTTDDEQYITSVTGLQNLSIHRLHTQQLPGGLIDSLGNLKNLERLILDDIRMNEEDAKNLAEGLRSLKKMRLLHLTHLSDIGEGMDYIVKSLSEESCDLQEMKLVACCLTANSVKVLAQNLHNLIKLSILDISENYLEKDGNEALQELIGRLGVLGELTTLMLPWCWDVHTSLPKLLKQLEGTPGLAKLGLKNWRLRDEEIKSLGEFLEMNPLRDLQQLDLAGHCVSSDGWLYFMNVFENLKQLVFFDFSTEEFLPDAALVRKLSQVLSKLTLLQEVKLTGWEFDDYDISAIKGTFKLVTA
UniProt Q92841: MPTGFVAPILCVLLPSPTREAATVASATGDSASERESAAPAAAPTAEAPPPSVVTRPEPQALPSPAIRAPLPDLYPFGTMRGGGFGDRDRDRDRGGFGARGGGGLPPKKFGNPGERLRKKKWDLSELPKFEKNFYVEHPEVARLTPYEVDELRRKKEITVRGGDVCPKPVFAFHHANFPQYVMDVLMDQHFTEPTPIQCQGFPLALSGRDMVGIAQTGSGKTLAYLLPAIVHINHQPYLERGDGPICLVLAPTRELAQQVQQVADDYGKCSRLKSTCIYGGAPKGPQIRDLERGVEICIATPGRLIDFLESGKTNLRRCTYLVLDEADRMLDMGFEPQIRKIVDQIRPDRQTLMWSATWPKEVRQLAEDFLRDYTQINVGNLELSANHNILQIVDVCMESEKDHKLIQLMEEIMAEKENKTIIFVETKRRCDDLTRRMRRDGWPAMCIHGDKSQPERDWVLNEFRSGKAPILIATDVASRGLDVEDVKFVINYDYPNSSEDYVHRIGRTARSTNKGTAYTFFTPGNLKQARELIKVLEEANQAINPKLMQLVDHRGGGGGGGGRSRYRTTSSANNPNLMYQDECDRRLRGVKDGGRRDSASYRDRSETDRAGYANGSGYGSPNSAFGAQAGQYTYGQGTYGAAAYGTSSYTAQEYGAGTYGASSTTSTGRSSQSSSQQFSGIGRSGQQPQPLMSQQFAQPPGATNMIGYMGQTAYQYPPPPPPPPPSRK
UniProt Q501J6: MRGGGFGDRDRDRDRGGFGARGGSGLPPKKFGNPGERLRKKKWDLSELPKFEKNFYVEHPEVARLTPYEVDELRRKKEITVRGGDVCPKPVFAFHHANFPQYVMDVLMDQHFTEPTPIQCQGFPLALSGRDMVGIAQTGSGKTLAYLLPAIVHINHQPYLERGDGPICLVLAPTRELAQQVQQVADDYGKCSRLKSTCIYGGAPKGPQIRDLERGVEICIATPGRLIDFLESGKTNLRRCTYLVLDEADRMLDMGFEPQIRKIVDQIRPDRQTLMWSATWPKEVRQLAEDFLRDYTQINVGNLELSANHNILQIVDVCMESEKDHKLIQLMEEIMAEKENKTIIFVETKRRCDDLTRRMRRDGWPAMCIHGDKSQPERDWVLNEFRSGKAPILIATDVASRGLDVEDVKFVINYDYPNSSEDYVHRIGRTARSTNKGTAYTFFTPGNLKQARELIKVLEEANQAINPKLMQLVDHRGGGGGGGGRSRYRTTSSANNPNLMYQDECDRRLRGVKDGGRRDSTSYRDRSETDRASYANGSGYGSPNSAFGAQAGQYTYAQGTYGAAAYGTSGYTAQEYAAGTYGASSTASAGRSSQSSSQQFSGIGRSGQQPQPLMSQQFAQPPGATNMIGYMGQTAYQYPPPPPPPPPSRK

Columns and labels:
[1] = target: human NLR family CARD domain containing 4 (NLRC4) (human) (UniProt Q9NPP4); experiment: proximity ligation assay (PLA) on human donor-eye tissue sections
[2] = target: mouse NLR family CARD domain containing 4 (Nlrc4) (mouse) (UniProt Q3UP24); experiment: immunofluorescence colocalization in Alu RNA-treated mouse BMDMs
[3] = target: mouse NLR family CARD domain containing 4 (Nlrc4) (mouse) (UniProt Q3UP24); experiment: fluorescent staining, colocalization of endogenous proteins in Alu RNA-treated BMDM
[4] = target: human DEAD-box helicase 17 (DDX17) (human) (UniProt Q92841); experiment: proximity ligation assay (PLA) on human AMD tissue

human DEAD-box helicase 17 (DDX17) (from UniProt Q92841 2-729) (enzyme)
binding [1]: binds

mouse DEAD-box helicase 17 (Ddx17) (from UniProt Q501J6 1-650) (enzyme)
binding [2]: binds | binding [3]: binds

B1: human NLR family CARD domain containing 4 (NLRC4) (receptor)
chain: MNFIKDNSRALIQRMGMTVIKQITDDLFVWNVLNREEVNIICCEKVEQDAARGIIHMILKKGSESCNLFLKSLKEWNYPLFQDLNGQSLFHQTSEGDLDDLAQDLKDLYHTPSFLNFYPLGEDIDIIFNLKSTFTEPVLWRKDQHHHRVEQLTLNGLLQALQSPCIIEGESGKGKSTLLQRIAMLWGSGKCKALTKFKFVFFLRLSRAQGGLFETLCDQLLDIPGTIRKQTFMAMLLKLRQRVLFLLDGYNEFKPQNCPEIEALIKENHRFKNMVIVTTTTECLRHIRQFGALTAEVGDMTEDSAQALIREVLIKELAEGLLLQIQKSRCLRNLMKTPLFVVITCAIQMGESEFHSHTQTTLFHTFYDLLIQKNKHKHKGVAASDFIRSLDHCGDLALEGVFSHKFDFELQDVSSVNEDVLLTTGLLCKYTAQRFKPKYKFFHKSFQEYTAGRRLSSLLTSHEPEEVTKGNGYLQKMVSISDITSTYSSLLRYTCGSSVEATRAVMKHLAAVYQHGCLLGLSIAKRPLWRQESLQSVKNTTEQEILKAININSFVECGIHLYQESTSKSALSQEFEAFFQGKSLYINSGNIPDYLFDFFEHLPNCASALDFIKLDFYGGAMASWEKAAEDTGGIHMEEAPETYIPSRAVSLFFNWKQEFRTLEVTLRDFSKLNKQDIRYLGKIFSSATSLRLQIKRCAGVAGSLSLVLSTCKNIYSLMVEASPLTIEDERHITSVTNLKTLSIHDLQNQRLPGGLTDSLGNLKNLTKLIMDNIKMNEEDAIKLAEGLKNLKKMCLFHLTHLSDIGEGMDYIVKSLSSEPCDLEEIQLVSCCLSANAVKILAQNLHNLVKLSILDLSENYLEKDGNEALHELIDRMNVLEQLTALMLPWGCDVQGSLSSLLKHLEEVPQLVKLGLKNWRLTDTEIRILGAFFGKNPLKNFQQLNLAGNRVSSDGWLAFMGVFENLKQLVFFDFSTKEFLPDPALVRKLSQVLSKLTFLQEARLVGWQFDDDDLSVITGAFKLVTA
notes: Endogenous protein of human RPE cells and of human donor eyes
binding [4]: binds
